Measured values reported in the supplement of paper PMC10338343.
± gives the standard deviation. The entries are a selection whose mix differs from that of the whole data set. Many entries were measured with a wide error.

Each sequence was assayed on MIWI (PIWIL1) piRISC loaded with L1MC piRNA (30 nt) (assay: pre-steady-state target cleavage rate (min^-1); MIWI and MILI are mouse PIWI proteins and EfPiwi is from a freshwater sponge; tags in brackets are library labels; higher = faster piRNA-guided slicing of the target). Settings: guide: L1MC piRNA 5'p-UAACUAAAUACUAUGCAAGCUGUAGGUCCU; auxiliary factor: 500 nM mouse GTSF1.
Method in brief: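 Using HEPES–potassium acetate buffer at 33 °C, 1 nM active affinity-purified piRISC with a single synthetic guide was mixed with 0.1 nM transcribed, DNA-blocked target RNA library for 0–8 or 0–960 min, with or without 500 nM GTSF1 partner protein. Uncleaved targets were sequenced and normalised to depth and to weakly complementary targets, and three trials were pooled with k3 capped at 0.0001 min^-1. A burst-and-steady-state fit gave the pre-steady-state cleavage rate.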

Row | Sequence | pre-steady-state target cleavage rate
1 | UCCUGGAUGUCGAACGUAUCUUUUUAGUAA | 0.000106 ± 0.047
2 | UCGACCUACAGCUUGCAUAGUUAUUACAAA | 0.115 ± 0.035
3 | UCGACCUACAGCUUGGAUAGUAUUUAGUUA | 1.72 ± 0.055

Same assay, conditions: guide: L1MC piRNA 5'p-UAACUAAAUACUAUGCAAGCUGUAGGUCCU; auxiliary factor: none (no GTSF1)

Row | Sequence | pre-steady-state target cleavage rate
4 | UCCACCUACAGCUUGCAAUCUAUUUAGUUA | 0.00205 ± 0.0026
5 | AGGACCUACAGCUUGCAUAGUAAAUAGAAA | 0.00111 ± 0.0065
6 | UCCACCUACAGCUUGCAAUGUAUUUAGAAA | 0.00114 ± 0.0052
7 | UGGACCUAGUCCUUGCAUAGUAUUUACAAA | 0.00159 ± 0.0019
8 | UCCACCUACAGCUUGCAUAGUAAAAUCAAA | 0.00034 ± 0.014
9 | UCGACCUAGAGCUUGCAUAGUAUUUUCAAA | 0.00154 ± 0.0036
10 | UCGACCUUGAGCUUGCAUAGUAUUUUCAAA | 0.00201 ± 0.0026
11 | AGCACCUACAGCUUCCAUAGUAUUUAGUUA | 0.0012 ± 0.0048
12 | UCCACCUACAGCUUGCAUAGAUAAAUCAAA [g11:g27:cont:t1A] | 0.000802 ± 0.01
13 | UCCACCUACAGCUUCCAUAGUUUUUAGUUA | 0.00124 ± 0.0037
14 | UGGACCUAGUGCUUGCAUAGUAUUUUCAAA | 0.00182 ± 0.0033
15 | UCGACCUACAGCUUGCAUUCAAUUUAGUAA | 0.000474 ± 0.011
16 | UCCACCUACAGCUAGCAUAGUAUUUACAAA | 0.00113 ± 0.0053
17 | UCCACCUACACGUUGCAUAGUAUUUUCAAA | 0.00069 ± 0.0077
18 | UCCUGGAUGUCGAACCAUAAUAUUUAGUUA | 0.000104 ± 0.022
19 | UGGACCUACAGGAAGCAUAGUAUUUACAAA | 0.000887 ± 0.0073
20 | UCCACCUACAGCUUGCAUCAGUAUUUAGUUA | 0.000907 ± 0.008
21 | UCGACCUACAGCUUCGAUAGUAUUUUCAAA | 0.000235 ± 0.015
22 | UGGACCUACAGCUUGCAUAAGUAUUUAGUUA | 0.000447 ± 0.012

A section taken from the entries so far, as a working copy:
Row | Sequence | pre-steady-state target cleavage rate
6 | UCCACCUACAGCUUGCAAUGUAUUUAGAAA | 0.00114 ± 0.0052
7 | UGGACCUAGUCCUUGCAUAGUAUUUACAAA | 0.00159 ± 0.0019
8 | UCCACCUACAGCUUGCAUAGUAAAAUCAAA | 0.00034 ± 0.014
9 | UCGACCUAGAGCUUGCAUAGUAUUUUCAAA | 0.00154 ± 0.0036
10 | UCGACCUUGAGCUUGCAUAGUAUUUUCAAA | 0.00201 ± 0.0026
11 | AGCACCUACAGCUUCCAUAGUAUUUAGUUA | 0.0012 ± 0.0048
12 | UCCACCUACAGCUUGCAUAGAUAAAUCAAA [g11:g27:cont:t1A] | 0.000802 ± 0.01
13 | UCCACCUACAGCUUCCAUAGUUUUUAGUUA | 0.00124 ± 0.0037
14 | UGGACCUAGUGCUUGCAUAGUAUUUUCAAA | 0.00182 ± 0.0033

Later entries

Row | Sequence | pre-steady-state target cleavage rate
23 | UCGACCUACAGCUUGCAUAGUAUAAUGAAA | 0.00217 ± 0.0036
24 | UCCUGGUACAGCUUGCAUAGUAUAAUCAAA [g8:g24:cont:t1A] | 0.000347 ± 0.0085
25 | UGGACCUACAGCUUGCAGUAGUAUUUAGUUA | 0.000705 ± 0.0069
26 | UCCUGGAUGUCGAACGAUAGUUUUUAGAUA | 0.00026 ± 0.018
27 | UCGACCUACAGCUUCCAUAGUAUUAAGUUA | 0.00124 ± 0.0057
28 | UCCACCUACAGCUACCAUAGUAUUUAGUAA | 0.000918 ± 0.0062
29 | AGGACCUACAGGAAGCAUAGUAUUUAGAAA | 0.00129 ± 0.0029
30 | UCCUCCUACAGCAACCAUAGUAUUUAGUUA | 0.00144 ± 0.0035
31 | UCCUGGAUGUCGAUGCAUAGAAUUAAGUUA | 0.000427 ± 0.012
32 | UGGACCUACAGCUUGCAAUCUAUUUAGUAA | 0.00132 ± 0.0035
33 | UCCUGGAUGUCGAAGCAUAGUAUGUUAGUUA | 0.00117 ± 0.0058
34 | UGGACCUACAGCUUGCAUAGUAUUAUCAAA | 0.00173 ± 0.0043
35 | UCGACCUACAGCUUGCUAUCAUAAAUCAAA [g15:g28:cont:t1A] | 0.000135 ± 0.028
36 | UGGACCUACAGCUUGCAUAGAUAUUUCAAA | 0.000747 ± 0.0084
37 | AGGACCUACAGCUUCGAUAGUAUUUAGAAA | 0.000389 ± 0.0068
38 | UCCUGGAUGUCGAACGUAAGCUAUUUAGUUA | 0.000291 ± 0.012
39 | UGGACCUACAGCUUCCAUACUAUUUAGUUA | 0.000719 ± 0.0064
40 | UCCACCUACAGCUUGCAUAGUAAAUAGAAA | 0.00119 ± 0.0056
